From patent US8962333
For part of these data: Where a protein sequence is shown, tags need not be part of it. For part of these data: For at least one entry, the source does not settle the construct or the ends of the probe.

Tests used:
[1] = biological target: T1, HaeIII restriction endonuclease (UniProt O68584); experiment: enzyme reaction in vitro; conditions: 37 C, 30 min; gel outcome not described in words; purified native protein; protein details: New England Biolabs; only the site is given
T1 sequence (looked up, limits assumed): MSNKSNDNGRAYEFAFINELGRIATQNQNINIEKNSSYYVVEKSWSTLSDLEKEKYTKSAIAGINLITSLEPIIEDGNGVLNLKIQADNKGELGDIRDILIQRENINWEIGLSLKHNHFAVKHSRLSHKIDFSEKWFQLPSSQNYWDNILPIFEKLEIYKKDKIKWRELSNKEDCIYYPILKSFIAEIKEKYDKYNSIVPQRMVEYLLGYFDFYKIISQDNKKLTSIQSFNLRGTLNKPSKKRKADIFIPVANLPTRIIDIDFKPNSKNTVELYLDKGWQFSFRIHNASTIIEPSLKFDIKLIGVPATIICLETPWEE

[2] = tested on: CbeI (Cbes_2438) restriction endonuclease (Caldicellulosiruptor bescii); experiment: enzyme reaction in vitro; conditions: 75 C, 30 min; gel outcome not described in words; purified recombinant protein; only the site is given
[3] = tested on: M.CbeI (Cbes_2437) methyltransferase (Caldicellulosiruptor bescii); experiment: activity assay; conditions: m4C methylation of inner C in GGCC shown by sequencing trace peak heights; SAM, pH 8.5, 78 C; purified recombinant protein; protein details: C-terminal His-tag (pET24d, pDCW73), 0.837 kb ORF; only the site is given

Measured: activity on this sequence

GGCCAGCAAAAGGCCAGGAACCGTAAAAAGGCC (double strand) [pUC18 region with GGCC sites, unmethylated]
active: all assays above
